# In the supplement of paper PMC7877785:
# ± gives the uncertainty stated by the source. Many entries were measured with a wide error.
# Test: self-splicing fitness, log relative to wild type (ln ratio); higher = more splicing; Tetrahymena group I intron in knt gene, E. coli kanamycin selection, DiMSum; sequences stand for … in CUCUCU…GGAGGGAAAAGUUAUCAGGCAUGCACCUGGUAGCUAGUCUUUAAACCAAUAGAUUGCAUCGGUUUAAAAGGCAAGACCGUCAAAUUGCGGGAAAGGGGUCAACAGCCGUUCAGUACCAAGUCUCAGGGGAAACUUUGAGAUGGCCUUGCAAAGGGUAUGGUAAUAAGCUGACGGACAUGGUCCUAACCACGCAGCCAAGUCCUAAGUCAACAGAUCUUCUGUUGAUAUGGAUGCAGUUCACAGACUAAAUGUCGGUCGGGGAAGAUGUAUUCUUCUCAUAAGAUAUAGUCGGACCUCUCCUUAAUGGGAGCUAGCGGAUGAAGUGAUGCAACACUGGAGCCGCUGGGAACUAAUUUGUAUGCGAAAGUAUAUUGAUUAGUUUUGGAGUACUCGUGGUCG
# In short: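 Colonies from six replicate transformations of E. coli BL21(DE3) were pooled and amplicon-sequenced on an Illumina HiSeq 2500. The library placed an intron with all eight P1ex-region nucleotides randomised inside the knt kanamycin-resistance gene on pET-22b(+), and cells grew overnight at 37°C or 30°C on LB agar with or without 25 μg/mL kanamycin (plus 100 μg/mL carbenicillin, 50 μM IPTG, 0.2% rhamnose). Fitness is the DiMSum error-weighted combination of wild-type-normalised replicate fold changes, kanamycin versus none.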
Sequence,self-splicing fitness (ln) (37 °C),self-splicing fitness (ln) (30 °C)
GAGAAGCAAUAUUACGAAGG,-3.57 ± 1,
CCGCAGCAAUAUUACGCUCC,-1.3 ± 0.75,-2.24 ± 0.51
GGGUAGCAAUAUUACGGGGC,-3.07 ± 0.53,-2.61 ± 0.54
UAGUAGCAAUAUUACGCACC,,0.121 ± 1.1
CGGGAGCAAUAUUACGCCCU,-1.47 ± 1.2,-3.3 ± 0.55
CCGCAGCAAUAUUACGAACC,-1.37 ± 0.69,
UAUUAGCAAUAUUACGAGAU,,-4.42 ± 0.74
UGCGAGCAAUAUUACGCUAG,-2.08 ± 1.1,
UGUGAGCAAUAUUACGACAC,-2.03 ± 0.81,-2.42 ± 1.2
CCGGAGCAAUAUUACGGAUC,-2.39 ± 1.1,
CAAGAGCAAUAUUACGGAGC,,-4.31 ± 1
GGCUAGCAAUAUUACGCCCA,1.85 ± 0.53,-0.828 ± 0.82
GAUAAGCAAUAUUACGCAAC,,-3.58 ± 0.53
UGAGAGCAAUAUUACGCAGA,-2.54 ± 0.63,-3.1 ± 0.34
UGCCAGCAAUAUUACGAGGU,-3.99 ± 0.3,-3.06 ± 0.13
UCCCAGCAAUAUUACGUACC,,-4.56 ± 0.51
ACCCAGCAAUAUUACGACUU,0.908 ± 0.062,0.148 ± 0.042
ACCGAGCAAUAUUACGUCGC,-3.76 ± 0.52,
ACAUAGCAAUAUUACGGAAG,-3.04 ± 0.22,-3.57 ± 0.15
UCCGAGCAAUAUUACGAAAA,,-4.4 ± 1
CUUUAGCAAUAUUACGGCUC,,-2.71 ± 0.56
GGAUAGCAAUAUUACGAUCC,-1.33 ± 0.56,
UAUCAGCAAUAUUACGGAAC,-0.398 ± 0.57,
UUCAAGCAAUAUUACGCUGG,-3.05 ± 0.24,-2.29 ± 0.13

Sequence,self-splicing fitness (ln) (37 °C),self-splicing fitness (ln) (30 °C)
GGGCAGCAAUAUUACGAAUA,,-3.07 ± 0.61
GAUGAGCAAUAUUACGUCAA,-3.44 ± 0.37,-3.32 ± 0.28
CACUAGCAAUAUUACGGCAA,-2.08 ± 0.18,-4.1 ± 0.42
GACCAGCAAUAUUACGCCCC,-0.908 ± 0.17,-1.35 ± 0.17
UUAUAGCAAUAUUACGAGUU,,-4.08 ± 0.51
CGUUAGCAAUAUUACGGGAU,,-4.45 ± 0.51
UACUAGCAAUAUUACGACCU,-0.83 ± 0.15,-2.01 ± 0.13
CCACAGCAAUAUUACGGAAU,-2.21 ± 0.18,-3.23 ± 0.17
ACCUAGCAAUAUUACGCCCC,,-0.432 ± 0.75
CAGCAGCAAUAUUACGAUGA,-1.31 ± 0.14,-2.7 ± 0.21
CCGGAGCAAUAUUACGACCA,-1.79 ± 0.52,-1.44 ± 0.52
CACGAGCAAUAUUACGCCGA,-3.5 ± 0.73,
AUUUAGCAAUAUUACGGGUU,,-4.83 ± 0.51
UCCUAGCAAUAUUACGCCUA,-2.68 ± 0.62,
CGAAAGCAAUAUUACGCCUC,,-2.06 ± 0.66
UCGAAGCAAUAUUACGCUAG,-0.234 ± 0.14,-2.16 ± 0.14
GGUGAGCAAUAUUACGGAGA,-0.778 ± 0.82,
GCGAAGCAAUAUUACGCAAG,-2.73 ± 0.54,
GGGGAGCAAUAUUACGUCAU,,-3.95 ± 0.6
CCGGAGCAAUAUUACGCUAC,-2.33 ± 0.64,
CAUCAGCAAUAUUACGCUGC,,-5 ± 0.72
GCUGAGCAAUAUUACGCCCU,-1.37 ± 1.2,-1.4 ± 0.52
UGGGAGCAAUAUUACGGUAA,-2.29 ± 1.1,
UUGCAGCAAUAUUACGCUCC,-1.97 ± 0.51,-2.77 ± 1.1

Sequence,self-splicing fitness (ln) (37 °C),self-splicing fitness (ln) (30 °C)
UUUGAGCAAUAUUACGGAAG,,-2.95 ± 0.69
GACCAGCAAUAUUACGGCGG,-2.79 ± 0.27,-2.55 ± 0.2
CACGAGCAAUAUUACGUAAA,,-5.2 ± 0.51
UGGGAGCAAUAUUACGCAGU,-3.15 ± 0.61,-4.22 ± 0.59
UGCUAGCAAUAUUACGCCCC,,-1.42 ± 0.54
CGAGAGCAAUAUUACGACUU,-2.22 ± 0.51,-3.75 ± 0.6
GCUAAGCAAUAUUACGCUGC,-2.14 ± 0.5,
AUGGAGCAAUAUUACGCAAC,-2.11 ± 0.57,-3.65 ± 0.73
GGUUAGCAAUAUUACGAGAU,,-3.4 ± 0.62
AGAGAGCAAUAUUACGAGAC,-3.74 ± 1,-4.29 ± 1.1
UUAGAGCAAUAUUACGAAUU,-2.62 ± 0.63,
UGCGAGCAAUAUUACGCAUC,-2.44 ± 0.54,-3.46 ± 1.1
UCUGAGCAAUAUUACGCAAC,,-3.16 ± 0.64
AUCUAGCAAUAUUACGAAGC,-1.93 ± 0.81,
UAGGAGCAAUAUUACGUGGC,,-3.35 ± 0.6
UCAUAGCAAUAUUACGGGCU,,-3.79 ± 0.52
CGAGAGCAAUAUUACGCUCC,-2.67 ± 1.1,-2.77 ± 0.76
CUGGAGCAAUAUUACGUGAG,-0.213 ± 0.063,-0.772 ± 0.049
UCUGAGCAAUAUUACGCCAG,,-2.76 ± 0.54
CGCGAGCAAUAUUACGCACG,,-4.12 ± 0.53
UGCAAGCAAUAUUACGGAGC,-3.25 ± 0.6,-4.28 ± 0.6
UCGGAGCAAUAUUACGCGCU,,-4.23 ± 1
UCAGAGCAAUAUUACGUUAU,-3.42 ± 0.4,-2.84 ± 0.19
UGGGAGCAAUAUUACGUAAA,-2.49 ± 0.55,

# Already shown: entries from further up.
Sequence,self-splicing fitness (ln) (37 °C),self-splicing fitness (ln) (30 °C)
UCGAAGCAAUAUUACGCUAG,-0.234 ± 0.14,-2.16 ± 0.14
GGUGAGCAAUAUUACGGAGA,-0.778 ± 0.82,
GCGAAGCAAUAUUACGCAAG,-2.73 ± 0.54,
GGGGAGCAAUAUUACGUCAU,,-3.95 ± 0.6
CCGGAGCAAUAUUACGCUAC,-2.33 ± 0.64,
CAUCAGCAAUAUUACGCUGC,,-5 ± 0.72
GCUGAGCAAUAUUACGCCCU,-1.37 ± 1.2,-1.4 ± 0.52
UGGGAGCAAUAUUACGGUAA,-2.29 ± 1.1,
UUGCAGCAAUAUUACGCUCC,-1.97 ± 0.51,-2.77 ± 1.1
UUUGAGCAAUAUUACGGAAG,,-2.95 ± 0.69
GACCAGCAAUAUUACGGCGG,-2.79 ± 0.27,-2.55 ± 0.2
CACGAGCAAUAUUACGUAAA,,-5.2 ± 0.51
UGGGAGCAAUAUUACGCAGU,-3.15 ± 0.61,-4.22 ± 0.59
UGCUAGCAAUAUUACGCCCC,,-1.42 ± 0.54
CGAGAGCAAUAUUACGACUU,-2.22 ± 0.51,-3.75 ± 0.6
GCUAAGCAAUAUUACGCUGC,-2.14 ± 0.5,
AUGGAGCAAUAUUACGCAAC,-2.11 ± 0.57,-3.65 ± 0.73
GGUUAGCAAUAUUACGAGAU,,-3.4 ± 0.62
AGAGAGCAAUAUUACGAGAC,-3.74 ± 1,-4.29 ± 1.1
UUAGAGCAAUAUUACGAAUU,-2.62 ± 0.63,
UGCGAGCAAUAUUACGCAUC,-2.44 ± 0.54,-3.46 ± 1.1
UCUGAGCAAUAUUACGCAAC,,-3.16 ± 0.64
AUCUAGCAAUAUUACGAAGC,-1.93 ± 0.81,
UAGGAGCAAUAUUACGUGGC,,-3.35 ± 0.6
UCAUAGCAAUAUUACGGGCU,,-3.79 ± 0.52
CGAGAGCAAUAUUACGCUCC,-2.67 ± 1.1,-2.77 ± 0.76
CUGGAGCAAUAUUACGUGAG,-0.213 ± 0.063,-0.772 ± 0.049
UCUGAGCAAUAUUACGCCAG,,-2.76 ± 0.54
CGCGAGCAAUAUUACGCACG,,-4.12 ± 0.53
UGCAAGCAAUAUUACGGAGC,-3.25 ± 0.6,-4.28 ± 0.6
UCGGAGCAAUAUUACGCGCU,,-4.23 ± 1
UCAGAGCAAUAUUACGUUAU,-3.42 ± 0.4,-2.84 ± 0.19

# Following part:

Sequence,self-splicing fitness (ln) (37 °C),self-splicing fitness (ln) (30 °C)
GGGAAGCAAUAUUACGCCAG,-1.84 ± 1.1,
GCUCAGCAAUAUUACGCGGG,-2.78 ± 0.2,-3.41 ± 0.2
UAUAAGCAAUAUUACGAAUC,,-4.4 ± 1
CUCGAGCAAUAUUACGGCUA,,-2.7 ± 0.51
GUCAAGCAAUAUUACGUCCG,,-5.1 ± 0.71
UCCAAGCAAUAUUACGAUGC,-1.62 ± 0.69,
UACAAGCAAUAUUACGCUGU,,-3.77 ± 1
GGGCAGCAAUAUUACGGAGA,-2.56 ± 0.22,-4.44 ± 0.46
CUGCAGCAAUAUUACGGAUC,,-5.88 ± 1
CCCGAGCAAUAUUACGCCCA,-3.41 ± 0.52,-4.02 ± 0.6
UUGGAGCAAUAUUACGAUGC,-2.23 ± 0.51,
UCAAAGCAAUAUUACGGUCU,-1.58 ± 0.14,-2.68 ± 0.16
GAUAAGCAAUAUUACGAGAU,-2.14 ± 0.21,-3.66 ± 0.21
GUUGAGCAAUAUUACGCGCA,-0.636 ± 0.24,-1.02 ± 0.2
CUAUAGCAAUAUUACGCGGA,-1.54 ± 0.69,
CCGCAGCAAUAUUACGUCGC,-3.08 ± 0.74,-5.02 ± 0.72
UAUGAGCAAUAUUACGGCCA,,-2.74 ± 0.64
UCUCAGCAAUAUUACGCAGA,-2.84 ± 0.61,
UUUGAGCAAUAUUACGCACA,0.0946 ± 0.83,-2.5 ± 0.58
ACGCAGCAAUAUUACGGAGC,,-4.9 ± 0.59
AUCGAGCAAUAUUACGAUGG,,-3.31 ± 0.56
UUGAAGCAAUAUUACGCAGU,-1.54 ± 0.32,-1.2 ± 0.3
UCUCAGCAAUAUUACGGAAC,-1 ± 0.92,
CGGAAGCAAUAUUACGCCCG,-2.24 ± 0.56,-2.86 ± 0.36

Sequence,self-splicing fitness (ln) (37 °C),self-splicing fitness (ln) (30 °C)
UCGAAGCAAUAUUACGUUGC,-4.41 ± 0.59,
CAUUAGCAAUAUUACGCUUC,-2.67 ± 0.74,
UAUGAGCAAUAUUACGCUAG,-1.36 ± 0.84,
UUAAAGCAAUAUUACGGCUA,0.424 ± 0.12,0.185 ± 0.091
UCGGAGCAAUAUUACGAGGU,-1.6 ± 0.84,-3.66 ± 1
ACCGAGCAAUAUUACGAACC,-2.79 ± 1.1,
UUAGAGCAAUAUUACGUUAC,,-3.72 ± 0.59
GCGUAGCAAUAUUACGUACC,-1.21 ± 0.67,-2.4 ± 0.65
CCUGAGCAAUAUUACGGCGC,-3.16 ± 0.52,
UGUGAGCAAUAUUACGCUGC,-1.83 ± 0.66,
AUGCAGCAAUAUUACGCCUG,-1.88 ± 0.67,
UUCGAGCAAUAUUACGACAC,-2.36 ± 0.54,
CUGAAGCAAUAUUACGGAGC,,-3.95 ± 0.52
UGAUAGCAAUAUUACGAUAC,-2.58 ± 0.54,-3.77 ± 0.52
CCGAAGCAAUAUUACGCCUC,-2.53 ± 0.54,
GAAGAGCAAUAUUACGAAUA,,-3.78 ± 0.59
CCAGAGCAAUAUUACGUACU,,-4.58 ± 0.72
CGUGAGCAAUAUUACGAGGC,-1.33 ± 1.2,
GUGGAGCAAUAUUACGGAUU,-3.23 ± 0.75,
UCCAAGCAAUAUUACGUUCC,,-4.58 ± 1
CGCAAGCAAUAUUACGUAAU,-2.14 ± 0.17,-3.89 ± 0.2
UGUCAGCAAUAUUACGAAAC,,-3.79 ± 0.59
ACGGAGCAAUAUUACGGCUG,-1.26 ± 0.13,-2.87 ± 0.12
CUCGAGCAAUAUUACGCAGC,-2.06 ± 0.55,-3.91 ± 0.51
